The source of these data is publication doi:10.1101/2023.09.04.556233.

Construct, isoform or probe ends are uncertain for at least one entry. Weaker means in comparison with the reference protein, sequence or condition of that experiment. Tags and fusion partners may be left off the protein sequences shown.

In this data set the target is T1, Spalt major (Salm) (UniProt P39770).
T1 sequence (looked up): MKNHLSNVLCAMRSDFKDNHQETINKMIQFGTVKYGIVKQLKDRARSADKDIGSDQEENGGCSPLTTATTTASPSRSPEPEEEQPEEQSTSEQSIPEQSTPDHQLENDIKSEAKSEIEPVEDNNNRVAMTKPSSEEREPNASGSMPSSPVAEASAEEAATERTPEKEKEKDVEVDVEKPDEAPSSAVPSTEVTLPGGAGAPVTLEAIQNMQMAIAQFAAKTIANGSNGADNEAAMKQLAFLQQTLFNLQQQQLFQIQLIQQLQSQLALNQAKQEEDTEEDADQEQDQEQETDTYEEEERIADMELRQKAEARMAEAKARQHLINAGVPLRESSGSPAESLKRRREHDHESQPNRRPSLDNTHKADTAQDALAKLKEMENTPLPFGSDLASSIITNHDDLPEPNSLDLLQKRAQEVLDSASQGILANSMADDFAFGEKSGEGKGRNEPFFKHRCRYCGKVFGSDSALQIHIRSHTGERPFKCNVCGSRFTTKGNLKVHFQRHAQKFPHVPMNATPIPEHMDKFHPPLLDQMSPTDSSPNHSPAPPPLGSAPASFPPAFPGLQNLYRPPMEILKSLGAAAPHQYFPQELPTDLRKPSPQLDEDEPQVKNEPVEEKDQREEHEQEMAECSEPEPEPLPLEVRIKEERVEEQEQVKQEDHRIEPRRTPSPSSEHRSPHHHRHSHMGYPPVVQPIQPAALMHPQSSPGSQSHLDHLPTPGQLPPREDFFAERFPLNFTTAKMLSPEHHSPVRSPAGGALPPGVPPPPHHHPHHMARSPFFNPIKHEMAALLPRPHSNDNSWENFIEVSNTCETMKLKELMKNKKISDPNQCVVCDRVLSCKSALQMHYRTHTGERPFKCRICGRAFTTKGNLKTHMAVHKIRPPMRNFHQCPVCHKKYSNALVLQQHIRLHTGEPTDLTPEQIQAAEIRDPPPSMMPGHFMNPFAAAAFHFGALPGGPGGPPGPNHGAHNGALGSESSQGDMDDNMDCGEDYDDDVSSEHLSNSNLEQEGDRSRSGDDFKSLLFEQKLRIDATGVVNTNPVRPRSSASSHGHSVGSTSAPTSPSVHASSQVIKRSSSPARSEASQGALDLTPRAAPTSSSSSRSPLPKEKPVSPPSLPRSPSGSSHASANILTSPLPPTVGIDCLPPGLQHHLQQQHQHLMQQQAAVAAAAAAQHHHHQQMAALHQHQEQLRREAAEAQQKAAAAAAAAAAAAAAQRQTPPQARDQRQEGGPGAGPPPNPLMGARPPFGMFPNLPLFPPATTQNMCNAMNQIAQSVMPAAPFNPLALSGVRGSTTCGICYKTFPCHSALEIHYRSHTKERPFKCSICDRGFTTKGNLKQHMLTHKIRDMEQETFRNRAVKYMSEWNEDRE
Briefly: EMSA. To be noted: added NaCl, KCl or MgCl2 (in general unfavorable); residues 1-1365.

On to “GCAAAAAGATATCAAAAATGTCGCATATTAATAACGCTCTCCATTGGCGGACACAGGAC (double strand) [60sal]”, for which the binding result is on record as “binds more weakly”.
